No constants are given. Whether binding was seen depends on the method and setting. For some of these results: In cells and extracts the contact can be indirect. Some entries that bind do so weakly or less than the wild type.

Amino acid sequences for entries named in this document (tags omitted). Residues count along the entry.
UniProt P11142: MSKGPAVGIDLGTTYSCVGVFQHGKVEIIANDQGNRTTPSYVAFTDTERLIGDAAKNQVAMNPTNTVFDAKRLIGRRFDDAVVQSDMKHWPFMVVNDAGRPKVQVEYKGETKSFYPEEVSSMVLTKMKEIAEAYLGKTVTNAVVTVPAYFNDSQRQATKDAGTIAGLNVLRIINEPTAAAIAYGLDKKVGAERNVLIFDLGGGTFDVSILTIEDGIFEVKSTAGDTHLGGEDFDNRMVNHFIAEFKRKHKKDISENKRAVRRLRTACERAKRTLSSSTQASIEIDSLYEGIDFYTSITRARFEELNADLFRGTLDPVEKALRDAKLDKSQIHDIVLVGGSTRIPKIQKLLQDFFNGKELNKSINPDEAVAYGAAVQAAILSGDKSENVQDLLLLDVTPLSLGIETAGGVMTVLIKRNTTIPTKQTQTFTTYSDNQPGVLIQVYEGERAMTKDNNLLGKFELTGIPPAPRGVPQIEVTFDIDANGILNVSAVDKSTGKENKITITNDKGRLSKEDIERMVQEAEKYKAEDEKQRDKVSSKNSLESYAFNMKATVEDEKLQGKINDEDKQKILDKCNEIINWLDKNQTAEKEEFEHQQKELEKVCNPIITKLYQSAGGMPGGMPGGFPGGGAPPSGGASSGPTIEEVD
UniProt Q04206: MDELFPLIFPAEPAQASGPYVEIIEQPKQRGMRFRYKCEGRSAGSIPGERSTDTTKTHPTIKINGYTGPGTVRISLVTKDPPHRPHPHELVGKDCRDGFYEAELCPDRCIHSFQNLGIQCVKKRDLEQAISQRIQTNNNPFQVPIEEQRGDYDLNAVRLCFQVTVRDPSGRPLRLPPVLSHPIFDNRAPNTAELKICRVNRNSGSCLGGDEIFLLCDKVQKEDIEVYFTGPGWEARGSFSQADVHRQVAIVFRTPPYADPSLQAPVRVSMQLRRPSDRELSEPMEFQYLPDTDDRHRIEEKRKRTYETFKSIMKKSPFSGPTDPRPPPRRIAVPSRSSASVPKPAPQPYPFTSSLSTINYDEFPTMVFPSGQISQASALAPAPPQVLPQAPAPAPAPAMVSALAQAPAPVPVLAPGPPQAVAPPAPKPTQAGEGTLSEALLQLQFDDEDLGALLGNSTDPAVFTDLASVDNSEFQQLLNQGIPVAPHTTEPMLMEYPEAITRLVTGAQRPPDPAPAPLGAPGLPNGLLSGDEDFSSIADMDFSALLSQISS
UniProt P13473, residues 29-410: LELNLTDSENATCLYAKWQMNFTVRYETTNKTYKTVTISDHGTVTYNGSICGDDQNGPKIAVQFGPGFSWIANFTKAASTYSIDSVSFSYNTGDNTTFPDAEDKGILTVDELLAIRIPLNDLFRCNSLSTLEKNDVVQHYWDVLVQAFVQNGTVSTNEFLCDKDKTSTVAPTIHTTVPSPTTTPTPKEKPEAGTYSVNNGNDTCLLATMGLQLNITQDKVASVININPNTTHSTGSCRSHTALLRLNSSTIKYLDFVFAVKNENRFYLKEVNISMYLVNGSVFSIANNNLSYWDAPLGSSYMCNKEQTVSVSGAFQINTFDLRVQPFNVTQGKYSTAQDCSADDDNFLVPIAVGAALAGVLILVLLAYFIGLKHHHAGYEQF

One test addresses GST-HSC70 (UniProt P11142). As to the kind of experiment: pull-down; GST fusion protein from E. coli on Glutathione Sepharose 4B, washed, incubated with whole-cell lysate of HEK293T cells expressing Flag-tagged proteins for 6 h at 4 °C, western blot; only the target purified. (In general: In western blotting, separated proteins are transferred to a membrane and probed.)
A further test deals with Flag-p65-full-length (UniProt Q04206). The test is described as follows: co-IP; HEK293T transfected with Flag-tagged p65 or Flag-tagged HSC70; Flag M2 beads 48 h post transfection, immunoblot.
For test [1], the target named is p65 (endogenous) (human (endogenous in HEK293T)) (UniProt Q04206). The test is described as follows: co-IP; endogenous proteins; HEK293T cell lysates immunoprecipitated with anti-p65, anti-LAMP2 or anti-HSC70 antibodies, western blot.
The next test concerns the target GST-p65 (UniProt Q04206). The test is described as follows: pull-down; GST or GST-p65 from E. coli on Glutathione Sepharose 4B, washed, incubated with His-tagged HSC70 from E. coli for 6 h at 4 °C, western blot; both purified.
Another test addresses Flag-HSC70-FL (UniProt P11142). As to the kind of experiment: co-IP; HEK293T transfected with Flag-tagged p65 or Flag-tagged HSC70; Flag M2 beads 48 h post transfection, immunoblot.
Test [2] concerns the target LAMP2 (endogenous) (human (endogenous in HEK293T)) (UniProt P13473). The test is described as follows: co-IP; endogenous proteins; HEK293T cell lysates immunoprecipitated with anti-p65, anti-LAMP2 or anti-HSC70 antibodies, western blot.
Test [3] deals with HSC70 (endogenous) (human (endogenous in HEK293T)) (UniProt P11142). Described as above.

Consider “Flag-p65-full-length (from UniProt Q04206 1-551)”, for which the binding entry in the test with GST-HSC70 is “binds”. As for “HSC70 (endogenous) (from UniProt P11142 1-646)”, the binding entry (in the test with Flag-p65-full-length; in test [1]) was “binds” each time. In the case of His-HSC70 (from UniProt P11142 1-646), in the test with GST-p65, the binding entry was “binds”. Turning to “p65 (endogenous) (from UniProt Q04206 1-551)”, the binding result (with Flag-HSC70-FL; in test [2]; in test [3]) was “binds” each time.

These data come from PMC5668883.
